Results from the supplement of paper PMC10060354, “Discovery of a small molecule ligand of FRS2 that inhibits invasion and tumor growth” (Cellular Oncology, 2022).

Protein sequences, listed by entry. Tags and fused reporters are not part of them. Lines headed by an entry give the natural chain unless they say otherwise; changes in a name come on top.
UniProt Q969N2: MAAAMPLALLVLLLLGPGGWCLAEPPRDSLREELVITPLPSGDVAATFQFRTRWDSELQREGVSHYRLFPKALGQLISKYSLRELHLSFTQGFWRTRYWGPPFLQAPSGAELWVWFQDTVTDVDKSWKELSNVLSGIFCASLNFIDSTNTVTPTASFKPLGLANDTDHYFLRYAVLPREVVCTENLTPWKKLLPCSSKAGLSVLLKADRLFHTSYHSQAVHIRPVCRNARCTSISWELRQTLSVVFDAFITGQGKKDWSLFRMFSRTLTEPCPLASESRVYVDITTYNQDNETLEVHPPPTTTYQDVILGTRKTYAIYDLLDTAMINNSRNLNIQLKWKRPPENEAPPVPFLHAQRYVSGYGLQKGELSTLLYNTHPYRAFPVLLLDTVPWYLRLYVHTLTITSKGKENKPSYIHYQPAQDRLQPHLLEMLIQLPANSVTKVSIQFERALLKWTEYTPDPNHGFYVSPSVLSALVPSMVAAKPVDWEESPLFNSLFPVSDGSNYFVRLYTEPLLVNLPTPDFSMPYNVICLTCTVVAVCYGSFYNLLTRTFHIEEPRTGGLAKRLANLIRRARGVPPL
UniProt Q8NCF5: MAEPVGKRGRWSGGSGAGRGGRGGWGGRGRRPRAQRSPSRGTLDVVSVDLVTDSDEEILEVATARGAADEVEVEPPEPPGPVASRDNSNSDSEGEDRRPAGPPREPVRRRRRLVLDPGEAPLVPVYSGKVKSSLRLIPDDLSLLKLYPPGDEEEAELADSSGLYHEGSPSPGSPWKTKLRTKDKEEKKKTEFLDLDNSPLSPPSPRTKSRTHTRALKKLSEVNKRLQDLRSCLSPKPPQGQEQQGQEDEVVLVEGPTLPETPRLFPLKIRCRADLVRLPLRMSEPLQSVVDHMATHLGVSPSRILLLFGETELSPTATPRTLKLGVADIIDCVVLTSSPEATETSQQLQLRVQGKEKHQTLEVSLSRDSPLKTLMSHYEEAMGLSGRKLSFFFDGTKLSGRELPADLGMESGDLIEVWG
UniProt P12277: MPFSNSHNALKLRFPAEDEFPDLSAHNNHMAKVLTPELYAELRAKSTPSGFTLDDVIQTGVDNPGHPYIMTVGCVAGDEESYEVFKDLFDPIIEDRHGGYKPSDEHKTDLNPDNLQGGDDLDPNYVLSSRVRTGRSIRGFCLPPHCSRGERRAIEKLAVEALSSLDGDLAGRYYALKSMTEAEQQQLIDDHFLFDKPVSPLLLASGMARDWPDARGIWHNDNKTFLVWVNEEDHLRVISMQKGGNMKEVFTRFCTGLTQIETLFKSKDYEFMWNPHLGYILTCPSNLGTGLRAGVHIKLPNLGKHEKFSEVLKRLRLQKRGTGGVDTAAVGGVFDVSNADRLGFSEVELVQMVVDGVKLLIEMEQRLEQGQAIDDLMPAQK
UniProt Q96IZ6: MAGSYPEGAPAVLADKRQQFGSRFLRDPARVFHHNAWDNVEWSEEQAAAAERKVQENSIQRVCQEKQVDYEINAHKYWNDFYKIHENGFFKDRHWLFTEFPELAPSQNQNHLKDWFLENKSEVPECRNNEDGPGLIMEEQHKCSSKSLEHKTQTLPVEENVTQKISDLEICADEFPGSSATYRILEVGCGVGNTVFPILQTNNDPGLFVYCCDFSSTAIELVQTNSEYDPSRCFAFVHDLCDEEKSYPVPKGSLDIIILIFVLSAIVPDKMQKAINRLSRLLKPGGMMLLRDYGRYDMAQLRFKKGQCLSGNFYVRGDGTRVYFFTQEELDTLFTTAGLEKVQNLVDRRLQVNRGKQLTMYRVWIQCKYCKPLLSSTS
UniProt P54753: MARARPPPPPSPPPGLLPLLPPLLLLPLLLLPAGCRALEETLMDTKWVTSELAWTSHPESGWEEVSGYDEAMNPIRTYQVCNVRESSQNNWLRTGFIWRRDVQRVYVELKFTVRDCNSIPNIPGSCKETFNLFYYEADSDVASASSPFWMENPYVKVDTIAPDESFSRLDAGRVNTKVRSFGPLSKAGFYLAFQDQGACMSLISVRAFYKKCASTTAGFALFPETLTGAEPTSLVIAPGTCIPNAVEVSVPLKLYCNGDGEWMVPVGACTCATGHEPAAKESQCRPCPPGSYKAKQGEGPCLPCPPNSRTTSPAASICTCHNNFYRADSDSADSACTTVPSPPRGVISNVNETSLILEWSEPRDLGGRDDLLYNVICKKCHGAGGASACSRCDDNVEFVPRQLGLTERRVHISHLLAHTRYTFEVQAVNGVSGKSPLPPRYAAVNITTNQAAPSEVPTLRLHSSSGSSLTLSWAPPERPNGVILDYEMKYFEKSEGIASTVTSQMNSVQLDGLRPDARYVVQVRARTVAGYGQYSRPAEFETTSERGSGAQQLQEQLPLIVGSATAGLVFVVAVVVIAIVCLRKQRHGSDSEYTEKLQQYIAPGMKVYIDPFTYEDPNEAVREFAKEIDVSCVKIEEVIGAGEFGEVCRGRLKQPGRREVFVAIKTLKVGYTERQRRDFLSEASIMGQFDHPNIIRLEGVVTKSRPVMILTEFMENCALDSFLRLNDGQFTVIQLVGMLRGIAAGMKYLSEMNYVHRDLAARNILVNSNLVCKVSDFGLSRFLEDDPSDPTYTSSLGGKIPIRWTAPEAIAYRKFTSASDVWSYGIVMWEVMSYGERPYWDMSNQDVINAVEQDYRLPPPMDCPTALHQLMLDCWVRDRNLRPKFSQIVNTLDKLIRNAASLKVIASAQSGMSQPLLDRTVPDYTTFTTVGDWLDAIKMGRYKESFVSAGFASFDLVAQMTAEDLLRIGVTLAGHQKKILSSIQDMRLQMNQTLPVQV
UniProt P52597: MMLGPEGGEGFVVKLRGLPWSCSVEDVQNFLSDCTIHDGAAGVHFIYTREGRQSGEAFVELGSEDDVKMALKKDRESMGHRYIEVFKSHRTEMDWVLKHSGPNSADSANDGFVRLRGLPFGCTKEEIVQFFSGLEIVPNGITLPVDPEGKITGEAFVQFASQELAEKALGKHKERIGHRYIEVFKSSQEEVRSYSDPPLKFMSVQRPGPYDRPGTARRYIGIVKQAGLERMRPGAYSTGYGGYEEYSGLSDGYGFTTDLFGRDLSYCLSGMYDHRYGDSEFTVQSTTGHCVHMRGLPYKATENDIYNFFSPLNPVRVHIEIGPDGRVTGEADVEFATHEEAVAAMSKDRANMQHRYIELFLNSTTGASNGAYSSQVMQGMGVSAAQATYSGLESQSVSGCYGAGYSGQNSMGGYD
UniProt Q9Y3A3: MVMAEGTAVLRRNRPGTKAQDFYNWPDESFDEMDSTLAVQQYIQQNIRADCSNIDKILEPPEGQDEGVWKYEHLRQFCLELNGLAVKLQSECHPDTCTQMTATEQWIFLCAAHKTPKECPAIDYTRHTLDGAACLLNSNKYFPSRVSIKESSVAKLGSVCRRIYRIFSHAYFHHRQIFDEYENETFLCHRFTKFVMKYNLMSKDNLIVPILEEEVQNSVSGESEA
UniProt Q9NPI1: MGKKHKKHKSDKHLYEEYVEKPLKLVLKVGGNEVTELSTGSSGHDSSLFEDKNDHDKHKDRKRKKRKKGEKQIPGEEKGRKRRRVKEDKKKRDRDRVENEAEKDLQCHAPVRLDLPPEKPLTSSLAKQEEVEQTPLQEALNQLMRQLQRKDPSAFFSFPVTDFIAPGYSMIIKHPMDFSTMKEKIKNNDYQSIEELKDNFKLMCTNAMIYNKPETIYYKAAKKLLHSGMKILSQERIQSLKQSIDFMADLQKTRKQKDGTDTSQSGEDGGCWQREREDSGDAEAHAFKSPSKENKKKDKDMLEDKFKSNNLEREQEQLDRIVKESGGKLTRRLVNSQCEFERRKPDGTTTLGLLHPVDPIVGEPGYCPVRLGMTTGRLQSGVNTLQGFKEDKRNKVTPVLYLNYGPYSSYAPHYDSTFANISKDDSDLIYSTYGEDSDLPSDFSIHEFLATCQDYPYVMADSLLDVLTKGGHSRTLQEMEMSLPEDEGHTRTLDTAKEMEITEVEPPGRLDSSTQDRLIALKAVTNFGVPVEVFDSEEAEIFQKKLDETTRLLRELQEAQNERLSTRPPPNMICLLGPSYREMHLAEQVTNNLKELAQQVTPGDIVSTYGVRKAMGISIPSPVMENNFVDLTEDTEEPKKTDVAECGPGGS
UniProt Q9UHB9: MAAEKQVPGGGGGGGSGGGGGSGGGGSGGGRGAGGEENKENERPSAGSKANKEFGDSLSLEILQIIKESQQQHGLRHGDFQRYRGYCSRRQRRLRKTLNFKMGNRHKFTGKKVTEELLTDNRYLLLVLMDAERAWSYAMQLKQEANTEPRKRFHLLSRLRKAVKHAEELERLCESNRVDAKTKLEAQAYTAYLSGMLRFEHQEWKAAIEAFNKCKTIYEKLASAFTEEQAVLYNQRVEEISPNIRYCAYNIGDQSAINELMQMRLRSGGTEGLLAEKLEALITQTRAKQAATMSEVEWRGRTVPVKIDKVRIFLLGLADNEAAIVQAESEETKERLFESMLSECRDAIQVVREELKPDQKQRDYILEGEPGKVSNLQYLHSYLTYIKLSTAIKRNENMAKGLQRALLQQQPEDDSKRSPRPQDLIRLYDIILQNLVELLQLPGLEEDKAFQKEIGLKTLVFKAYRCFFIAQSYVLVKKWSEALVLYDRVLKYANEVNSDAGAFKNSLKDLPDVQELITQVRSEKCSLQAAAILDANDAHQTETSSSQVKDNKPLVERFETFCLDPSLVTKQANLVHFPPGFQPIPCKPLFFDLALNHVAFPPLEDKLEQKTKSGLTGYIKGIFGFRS
UniProt Q96FZ7: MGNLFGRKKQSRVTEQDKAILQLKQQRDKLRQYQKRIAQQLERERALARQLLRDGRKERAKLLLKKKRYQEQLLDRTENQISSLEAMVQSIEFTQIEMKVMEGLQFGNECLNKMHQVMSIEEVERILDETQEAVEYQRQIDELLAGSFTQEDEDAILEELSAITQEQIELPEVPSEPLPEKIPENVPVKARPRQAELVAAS
UniProt Q9ULW0, whole entry: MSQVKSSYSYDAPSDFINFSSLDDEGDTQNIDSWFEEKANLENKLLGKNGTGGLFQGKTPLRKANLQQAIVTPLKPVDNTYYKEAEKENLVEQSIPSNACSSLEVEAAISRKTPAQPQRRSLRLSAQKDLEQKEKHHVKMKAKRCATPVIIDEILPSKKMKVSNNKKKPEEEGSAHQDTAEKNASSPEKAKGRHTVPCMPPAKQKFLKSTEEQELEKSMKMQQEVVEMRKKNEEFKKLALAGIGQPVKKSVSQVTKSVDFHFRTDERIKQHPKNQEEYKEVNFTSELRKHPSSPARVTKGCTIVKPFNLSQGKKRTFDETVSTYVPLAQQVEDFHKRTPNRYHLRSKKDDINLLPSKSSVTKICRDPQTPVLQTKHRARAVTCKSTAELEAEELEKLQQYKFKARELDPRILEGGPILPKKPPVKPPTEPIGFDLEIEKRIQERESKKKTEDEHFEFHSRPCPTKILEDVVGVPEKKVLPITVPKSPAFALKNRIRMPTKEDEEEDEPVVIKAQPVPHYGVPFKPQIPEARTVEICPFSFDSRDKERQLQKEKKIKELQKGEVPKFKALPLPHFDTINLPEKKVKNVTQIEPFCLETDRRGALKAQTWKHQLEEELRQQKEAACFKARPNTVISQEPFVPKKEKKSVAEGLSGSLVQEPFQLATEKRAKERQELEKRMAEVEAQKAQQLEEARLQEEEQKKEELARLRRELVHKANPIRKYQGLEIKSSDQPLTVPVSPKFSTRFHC
UniProt P06132: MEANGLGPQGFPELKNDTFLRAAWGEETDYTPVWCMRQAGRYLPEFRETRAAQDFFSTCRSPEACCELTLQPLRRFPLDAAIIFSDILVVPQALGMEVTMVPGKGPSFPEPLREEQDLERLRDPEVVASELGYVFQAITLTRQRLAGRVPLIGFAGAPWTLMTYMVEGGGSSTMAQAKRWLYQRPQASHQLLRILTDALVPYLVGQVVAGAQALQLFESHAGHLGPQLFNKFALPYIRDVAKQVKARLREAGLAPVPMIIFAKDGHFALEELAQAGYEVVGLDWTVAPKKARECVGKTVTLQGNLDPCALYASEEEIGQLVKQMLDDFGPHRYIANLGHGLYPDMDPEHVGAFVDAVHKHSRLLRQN
UniProt Q5SSJ5: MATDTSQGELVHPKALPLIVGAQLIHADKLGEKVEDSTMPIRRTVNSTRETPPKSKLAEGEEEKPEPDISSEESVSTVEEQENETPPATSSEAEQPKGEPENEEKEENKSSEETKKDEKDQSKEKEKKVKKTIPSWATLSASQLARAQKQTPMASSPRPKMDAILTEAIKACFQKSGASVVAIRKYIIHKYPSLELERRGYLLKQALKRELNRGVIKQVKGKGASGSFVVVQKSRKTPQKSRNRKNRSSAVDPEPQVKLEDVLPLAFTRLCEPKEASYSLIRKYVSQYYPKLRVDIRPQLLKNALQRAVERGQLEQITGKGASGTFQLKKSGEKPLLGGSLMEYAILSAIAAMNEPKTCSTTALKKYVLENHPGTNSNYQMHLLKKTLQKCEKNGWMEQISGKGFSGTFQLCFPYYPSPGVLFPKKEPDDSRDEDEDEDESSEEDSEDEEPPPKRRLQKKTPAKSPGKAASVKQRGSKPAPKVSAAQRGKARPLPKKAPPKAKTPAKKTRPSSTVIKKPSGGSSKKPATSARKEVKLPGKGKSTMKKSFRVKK

Compound: [O-][N+](C(C1=C(C(O)=C2)NC(C(C=C3)=CC=C3Cl)C4C1C=CC4)=C2Cl)=O
Assay: melting temperature shift (compound 7 minus DMSO); higher = compound stabilises the protein
Details: 10 µM
Protocol: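 Thermal proteome profiling (TMT mass spectrometry) in intact DAOY medulloblastoma cells or DAOY lysates treated with 10 µM compound 7 or DMSO, heated at 10 temperatures from 40.5 to 73.8 °C for 3 min. Melting curves were fitted with the Bioconductor TPP package, and the melting point difference between compound and vehicle is reported per protein (single curve per condition).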

[1] = system: DAOY cell lysate, treatment time: 20 min, 4 °C
[2] = system: intact DAOY cells, treatment time: 90 min, 37 °C

| Target | melting temperature shift [1] | melting temperature shift [2] |
| --- | --- | --- |
| UACA (UniProt Q9BZF9) | -0.207 °C | 0.513 °C |
| PIGT (UniProt Q969N2) | 0.992 °C | -0.528 °C |
| NFATC2IP (UniProt Q8NCF5) | -0.0923 °C | 4.31 °C |
| UniProt P27986 | -1.79 °C | -0.863 °C |
| PSMC5 (UniProt P62195) | -0.371 °C | -1.74 °C |
| TBCE (UniProt Q15813) | -0.662 °C | 0.536 °C |
| UniProt Q8N5F7 | 1.16 °C |  |
| CKB (UniProt P12277) | -0.646 °C | -1.17 °C |
| LSM14A (UniProt Q8ND56) | 0.257 °C | -0.069 °C |
| ELOVL1 (UniProt Q9BW60) | 3.35 °C | -2.99 °C |
| POLR3E (UniProt Q9NVU0) | 0.872 °C |  |
| METTL2A (UniProt Q96IZ6) |  | 0.777 °C |
| EPHB3 (UniProt P54753) |  | -0.67 °C |
| SMS (UniProt P52788) | -1.03 °C | -0.144 °C |
| CNP (UniProt P09543) | -0.43 °C | -1.33 °C |
| NCSTN (UniProt Q92542) | 1.28 °C |  |
| HNRNPF (UniProt P52597) | -0.00265 °C | -0.439 °C |
| MPI (UniProt P34949) | -0.167 °C | 0.249 °C |
| CHMP2A (UniProt O43633) | -1.31 °C | -1.34 °C |
| UniProt Q7Z4I7 |  | -0.691 °C |
| UniProt P57721 |  | -0.76 °C |
| UniProt Q6PEW1 |  | -0.508 °C |
| LARS (UniProt Q9P2J5) | -0.929 °C | -0.443 °C |

| Target | melting temperature shift [1] | melting temperature shift [2] |
| --- | --- | --- |
| DTX3L (UniProt Q8TDB6) | -1.61 °C |  |
| PIGU (UniProt Q9H490) | 0.54 °C | -1.94 °C |
| LGALS3BP (UniProt Q08380) | 1.85 °C | 0.662 °C |
| VPS33A (UniProt Q96AX1) | 0.645 °C | 0.326 °C |
| MRPL24 (UniProt Q96A35) | 0.527 °C | -1.42 °C |
| UniProt Q9Y3A3 | 0.146 °C | 0.942 °C |
| UniProt Q9BYV1 |  | -0.194 °C |
| UniProt P55347 | -1.96 °C |  |
| SPATS2 (UniProt Q86XZ4) | 0.616 °C | 0.759 °C |
| BRD7 (UniProt Q9NPI1) | 0.0201 °C | -2.55 °C |
| URGCP (UniProt Q8TCY9) | -1.56 °C |  |
| EDEM3 (UniProt Q9BZQ6) | 0.918 °C | 0.46 °C |
| HAX1 (UniProt O00165) |  | 0.424 °C |
| DHX16 (UniProt O60231) | -1.07 °C | -0.263 °C |
| STAG2 (UniProt Q8N3U4) | -0.123 °C | -0.291 °C |
| PRPS1 (UniProt P60891) | -1.49 °C | -0.199 °C |
| RNPS1 (UniProt Q15287) | -0.986 °C | -0.487 °C |
| AP3S1 (UniProt Q92572) | -0.938 °C | -0.733 °C |
| PPHLN1 (UniProt Q8NEY8) | 1.24 °C |  |
| GATB (UniProt O75879) | 1.39 °C |  |
| IMPDH2 (UniProt P12268) | -1.01 °C | -1.85 °C |
| YARS2 (UniProt Q9Y2Z4) | -0.0681 °C | 0.333 °C |
| ABR (UniProt Q12979) | -0.94 °C | -0.36 °C |

| Target | melting temperature shift [1] | melting temperature shift [2] |
| --- | --- | --- |
| EIF3J (UniProt O75822) | -0.27 °C | 0.179 °C |
| SRP68 (UniProt Q9UHB9) | -0.121 °C | -0.713 °C |
| SCAMP1 (UniProt O15126) | 0.464 °C |  |
| RAB4A (UniProt P20338) | -1.29 °C | 1.22 °C |
| P0DPI3, A0A0U1RR11 |  | -0.554 °C |
| UniProt P16455 | -0.135 °C | -0.596 °C |
| PTGR1 (UniProt Q14914) | -0.741 °C | -2.06 °C |
| UniProt Q96H78 |  | 1.66 °C |
| CHMP6 (UniProt Q96FZ7) | 1.47 °C | -2 °C |
| UniProt Q12929 | 0.988 °C | -0.932 °C |
| FADD (UniProt Q13158) | -1.16 °C | -1.12 °C |
| UniProt Q6NWY9 |  | -1.1 °C |
| PSMD7 (UniProt P51665) | -1.24 °C | -1.54 °C |
| UniProt P17693 |  | -1.61 °C |
| UniProt P84090 | 1.06 °C |  |
| UniProt Q9NPF2 |  | 0.839 °C |
| UniProt O00584 |  | 1.21 °C |
| UniProt A4QPH2 | 0.201 °C |  |
| TBCB (UniProt Q99426) | -0.392 °C | 0.734 °C |
| TPX2 (UniProt Q9ULW0) | 0.948 °C |  |
| HMGA1 (UniProt P17096) | 4.05 °C |  |
| UniProt Q9UBF8 | -1.23 °C | -1.81 °C |
| PPM1B (UniProt O75688) | -0.539 °C | -0.0138 °C |

Quoted at random: 6 entries already listed

| Target | melting temperature shift [1] | melting temperature shift [2] |
| --- | --- | --- |
| UniProt Q6NWY9 |  | -1.1 °C |
| UniProt Q9Y3A3 | 0.146 °C | 0.942 °C |
| PPHLN1 (UniProt Q8NEY8) | 1.24 °C |  |
| UniProt O00584 |  | 1.21 °C |
| DHX16 (UniProt O60231) | -1.07 °C | -0.263 °C |
| PIGU (UniProt Q9H490) | 0.54 °C | -1.94 °C |

The list continues:

| Target | melting temperature shift [1] | melting temperature shift [2] |
| --- | --- | --- |
| PBXIP1 (UniProt Q96AQ6) |  | -1.07 °C |
| CCDC134 (UniProt Q9H6E4) | -0.231 °C | -0.215 °C |
| NEMP1 (UniProt O14524) | 3.84 °C | -2.15 °C |
| UniProt O15083 |  | -3.13 °C |
| NAXE (UniProt Q8NCW5) | -0.691 °C | -1.15 °C |
| UROD (UniProt P06132) | 0.0875 °C | 1.41 °C |
| PCYT2 (UniProt Q99447) | 0.08 °C | 0.562 °C |
| NSDHL (UniProt Q15738) | 1.29 °C | 2.85 °C |
| UniProt Q9Y6X3 | 1.85 °C |  |
| C12ORF10 (UniProt Q9HB07) | -1.15 °C | 0.342 °C |
| DCUN1D5 (UniProt Q9BTE7) | -1.51 °C | -1.45 °C |
| C12ORF29 (UniProt Q8N999) | -0.512 °C | -0.0969 °C |
| CUL2 (UniProt Q13617) | -0.101 °C | -0.22 °C |
| ANTXR1 (UniProt Q9H6X2) | 0.617 °C |  |
| SGTA (UniProt O43765) | -1.83 °C | -0.236 °C |
| UniProt Q5VTE0 |  | -1.18 °C |
| CCDC91 (UniProt Q7Z6B0) |  | 1.37 °C |
| DDX17 (UniProt Q92841) | 0.329 °C | -0.0421 °C |
| UFSP2 (UniProt Q9NUQ7) | 0.865 °C | 0.0386 °C |
| MARS2 (UniProt Q96GW9) | -0.129 °C |  |
| C17ORF75 (UniProt Q9HAS0) | -0.67 °C | -0.263 °C |
| HP1BP3 (UniProt Q5SSJ5) | -0.0401 °C | 0.0163 °C |
| RDH14 (UniProt Q9HBH5) | -1.03 °C | 0.103 °C |

Many values rest on one well or one pass, so single values are uncertain.
